Values from PubChem BioAssay AID1259308 (NCATS, 2017)
Shown is a random part of about 59,000 reagents tested. Of all reagents, about 1,510 (2.6%) were called active. 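Calls use total luciferase alone and ignore viability, so some active siRNAs may act by altering cell number.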 Unmarked entries are inactive. The numbers tell different reagents against one gene apart. Further read-outs or replicates are left out here.

- Purpose: 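Genes whose loss raises luciferase production in HEK293 cells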 (primary screen)
- Cells: human HEK293 embryonic kidney cells stably expressing firefly luciferase (HEK-CMV-Luc2-Hygro)
- Knock-down reagent: single siRNA against human genes, 0.8 pmol siRNA per well
- Timing: 72 h
- Detection: 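Reporter luminescence and viable-cell signal on separate replicate plates, given as percent of non-targeting control and median/MAD z-scores, plus per-cell luciferase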
- Scale: total luciferase, z-score: higher = more reporter protein produced
- Rule for the call: 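An siRNA counts as active if its total luciferase robust z-score exceeds 3; genes with two or more such siRNAs out of three were retested with fresh siRNAs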
- Calls: active = raised luciferase; inactive = no rise

MTARC2 (GeneID 54996) #1
- total luciferase, z-score: 1.49

MTARC2 (GeneID 54996) #2
- total luciferase, z-score: -0.263

MTARC2 (GeneID 54996) #3
- total luciferase, z-score: 0.609

LGALS3BP (GeneID 3959) #1
- total luciferase, z-score: 0.165

LGALS3BP (GeneID 3959) #2
- total luciferase, z-score: 0.512

LGALS3BP (GeneID 3959) #3
- total luciferase, z-score: -0.364

CCSER1 (GeneID 401145) #1
- total luciferase, z-score: 3.15 (active)

CCSER1 (GeneID 401145) #2
- total luciferase, z-score: 0.313

CCSER1 (GeneID 401145) #3
- total luciferase, z-score: 0.739

Continued, starting with the last 2 of the part before.
CCSER1 (GeneID 401145) #2
- total luciferase, z-score: 0.313

CCSER1 (GeneID 401145) #3
- total luciferase, z-score: 0.739

CD14 (GeneID 929) #1
- total luciferase, z-score: 0.298

CD14 (GeneID 929) #2
- total luciferase, z-score: 1.59

CD14 (GeneID 929) #3
- total luciferase, z-score: 0.409

ZNF560 (GeneID 147741) #1
- total luciferase, z-score: 1.31

ZNF560 (GeneID 147741) #2
- total luciferase, z-score: 0.358

ZNF560 (GeneID 147741) #3
- total luciferase, z-score: -0.305

SDE2 (GeneID 163859) #1
- total luciferase, z-score: 1.43

SDE2 (GeneID 163859) #2
- total luciferase, z-score: -0.531

SDE2 (GeneID 163859) #3
- total luciferase, z-score: 0.574

SNX29 (GeneID 92017) #1
- total luciferase, z-score: -0.751

SNX29 (GeneID 92017) #2
- total luciferase, z-score: 0.763

SNX29 (GeneID 92017) #3
- total luciferase, z-score: 0.283

SNX29 (GeneID 92017) #4
- total luciferase, z-score: -0.497

SNX29 (GeneID 92017) #5
- total luciferase, z-score: -1.03

SNX29 (GeneID 92017) #6
- total luciferase, z-score: 0.012
